Measurements from “University of Dundee, Small-Polar-MMV Screening Library” (2021), ChEMBL document CHEMBL3988442.

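Whole-parasite assay of Trypanosoma brucei over 72 hours; the read-out is not stated. Concentration: 30 µM. Direction is inferred from retests: higher values go with stronger inhibition. Values scatter widely below zero; nearly all retest evidence comes from the higher of the two concentrations used. Size under these conditions: about 64,000 compounds, about 940 of them at 50% or above in at least one test.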

Values are the deposited “Percent Effect”, in %.
The controls that fix the scale are not given in the record; negative values are as filed.
This is an unselected part of the compounds tested.

compound	percent effect
CN(Cc1ccco1)C(=O)CN1CCc2ccccc2C1	6.48%
Cc1cc(C2CCCN2Cc2cccc(C(=O)Nc3nccs3)c2)no1 (configuration not stated)	1.79%
CC(C)CN1CCC2(CCCNC2)C1=O.Cl (configuration not stated)	1.623%
O=C(O)C(F)(F)F.O=C(O)C(F)(F)F.c1cncc(N2CCCn3nnc(CN4CCCCC4)c3C2)c1	-13.19%
Cc1ncc(CN(C)C(=O)c2ccc3c(c2O)OC(C)(C)C3)s1	-9.09%
Cc1nn(C)cc1-c1nn2c(C(F)(F)F)nnc2s1	-2.716%
OC(CNCCn1cccn1)c1ccc(Br)cc1 (configuration not stated)	5.503%
Cc1cnn(CCNCc2ccccc2C#N)c1	-53.56%
CC(C)C[C@@H]1N[C@H](C(=O)NC2CCOCC2)Cc2c[nH]c3cccc1c23	74.51%
Cc1cnn(CC2CCCCN2C(=O)c2ccc3c(c2)nnn3C)c1 (configuration not stated)	-20.8%
Cc1oc(C(=O)O)cc1S(=O)(=O)Nc1cc(Br)ccc1F	-7.629%
CCCN1C(=O)C2(CCCCC2)NC1c1c[nH]nc1-c1cccnc1 (configuration not stated)	-39.81%
O=C(CN1CCOc2ccccc2C1)NCc1cc2n(n1)CCNC2	-44.78%
Cc1ccc(Br)c(S(=O)(=O)NCc2ccnn2C)c1	-1.855%
COc1ccc(OCc2cc(C(=O)N3CCOCC3)n[nH]2)c(Cl)c1	2.822%
CCOCCC(=O)N1CCN(CC(C)O)CC1 (configuration not stated)	0.526%
O=C(O)C(F)(F)F.[H][C@@]12C[C@H](C(=O)N3CCN(C)CC3)[C@@]([H])(CN(S(=O)(=O)CCC)C1)O2	2.556%
Cc1cnc(C(=O)NC(COCC(C)C)c2ccco2)cn1 (configuration not stated)	-25.15%
O=C(NCCCn1cccn1)c1nc2ccccc2[nH]1	4.4%
Cc1ccsc1C(=O)NCCCn1nc2ccccn2c1=O	5.679%
CN1CCN(S(=O)(=O)c2cccc(S(=O)(=O)C3CCS(=O)(=O)C3)c2)CC1 (configuration not stated)	-15.24%
CCN(CC(=O)Nc1cc(Cl)ccc1C)C(=O)c1ccc(=O)[nH]n1	-20.85%
NC(=O)c1cc2c(nc1Oc1ccccc1CN1CCCCC1)CCC2	-16.86%
O=C1NCC2(CCCN(CCc3ccccc3)C2)Oc2ccccc21 (configuration not stated)	-38.35%
Cc1ccccc1C(CC(=O)N1CCc2sccc2C1)NC(N)=O (configuration not stated)	-33.92%
Cc1csc(CNC(=O)Nc2cc(C(F)(F)F)c[nH]c2=O)n1	9.736%
CCn1c(SCC(=O)N2CCCC2)nc2cc(C)[nH]c2c1=O	-65.73%
O=C(CSc1nncs1)N1CCN(Cc2ccc(Cl)cc2)CC1	-32.95%
Cc1nc(C)n(CC2CN(CC(=O)Nc3ccncc3)CCO2)n1 (configuration not stated)	-4.979%
COCC1CC2(CCN(Cc3cnn(C)c3)CC2)CN1c1ncccn1.O=C(O)C(F)(F)F.O=C(O)C(F)(F)F (configuration not stated)	-18.76%
CN(C)CCOCc1cncc2c1CCN(C(=O)c1cscn1)C2	-5.841%
O=C(NC[C@]1(O)CN(Cc2ncccc2F)C[C@H]1O)c1cc[nH]n1	-7.931%
CN(C)S(=O)(=O)N(Cc1cscn1)c1ccccc1	-17.55%
[H][C@@]12C[C@H](C(=O)NCc3cccnc3)[C@@]([H])(CN(CC(C)C)C1)O2	-52.82%
Cc1ccc(C)c2c(C)c(C(=O)NCCC(=O)N3CCOCC3)oc12	-11.49%
CN1CCCN(C(C(=O)O)c2ccc3c(c2)OCO3)CC1 (configuration not stated)	5.928%
CCOCCn1nnc(C2(NC(=O)c3ccccc3)CCCC2)n1	25.16%
O=C(CC1CCN(c2cccnn2)CC1)NC1CCOCC1	4.089%
O=C(c1cccnc1O)N1CCOC(Cc2cccc(C(F)(F)F)c2)C1 (configuration not stated)	-105.4%
CC1CCN(C(=O)c2cccc3ncccc23)CC1	-8.1%
CCC(CO)N(Cc1ccccn1)Cc1c[nH]nc1-c1ccc(F)cc1 (configuration not stated)	-8.209%
Cc1cc(C(=O)N2CCCS2(=O)=O)c(C)o1	-36.48%
O=C(NCC1CCC2(CC1)OCCO2)c1cccc(-n2cccn2)c1	-44.12%
[H][C@@]12CS(=O)(=O)C[C@]1([H])N(C(=O)Cc1cccnc1)CCN2CCC	-1.412%
COCCN1C(=O)CC[C@]12CC[C@@H](NC(=O)c1cc(C)on1)CC2	-12.28%
Cc1nc2sccn2c1C(=O)N1CCn2nc(C(=O)NC3CC3)cc2C1	5.944%
COc1ccccc1OC1CCN(C(=O)CCCN2CCOCC2)CC1	-89.73%
O=C(O)C(F)(F)F.[H][C@@]12CCN(Cc3ccc(C)o3)C[C@@]1([H])O[C@@H](c1nnc(C)[nH]1)C2	-11.08%
O=C(c1cc(Cl)c2c(c1)OCO2)N1CCCC(n2ccnc2)C1 (configuration not stated)	-1.75%
CNC(=O)c1ccc(C2CN(CC(=O)N(C)C)CCO2)nc1 (configuration not stated)	-14.54%
Cc1cc2ccccc2n1CCC(=O)NCCN(C)S(C)(=O)=O	-28.6%
Cc1ccc(-c2cnnc(NCC3CCOCC3)n2)o1	-38.02%
O=C(COc1cccc(F)c1)N1C[C@@H](O)[C@H](N2CCCC2)C1	11.72%
O=C1CSCN1Cc1nc(-c2ccc(N3CCCCC3)cc2)no1	-6.538%
CS(=O)(=O)N1CCC(C(=O)NC(Cc2ccsc2)c2ccccn2)CC1 (configuration not stated)	13.58%
CCC[C@@H]1CN(C(=O)c2c(F)ccc(C)c2Cl)C[C@H]1C(=O)O	-12.34%
CC[C@H](C)[C@@H](CO)NC(C)Cc1ccc(F)cc1 (some centres not stated)	-24.21%
CCOc1ccc(NC2CCN(C(C)C)C2=O)cn1 (configuration not stated)	-23.45%

Once more, the final 5:

compound	percent effect
O=C1CSCN1Cc1nc(-c2ccc(N3CCCCC3)cc2)no1	-6.538%
CS(=O)(=O)N1CCC(C(=O)NC(Cc2ccsc2)c2ccccn2)CC1 (configuration not stated)	13.58%
CCC[C@@H]1CN(C(=O)c2c(F)ccc(C)c2Cl)C[C@H]1C(=O)O	-12.34%
CC[C@H](C)[C@@H](CO)NC(C)Cc1ccc(F)cc1 (some centres not stated)	-24.21%
CCOc1ccc(NC2CCN(C(C)C)C2=O)cn1 (configuration not stated)	-23.45%